Test results from article PMC3422339.
Results are given in words; binding and its absence hold for the method and conditions named. For some of these results: Binding seen in cells or lysates may run through a third protein. Some entries that bind do so weakly or less than the wild type. For some of these results: Sequences can lack the tags named with a protein.

The chains behind the UniProt entries cited, without tags or fusion partners.
UniProt Q9LVJ7: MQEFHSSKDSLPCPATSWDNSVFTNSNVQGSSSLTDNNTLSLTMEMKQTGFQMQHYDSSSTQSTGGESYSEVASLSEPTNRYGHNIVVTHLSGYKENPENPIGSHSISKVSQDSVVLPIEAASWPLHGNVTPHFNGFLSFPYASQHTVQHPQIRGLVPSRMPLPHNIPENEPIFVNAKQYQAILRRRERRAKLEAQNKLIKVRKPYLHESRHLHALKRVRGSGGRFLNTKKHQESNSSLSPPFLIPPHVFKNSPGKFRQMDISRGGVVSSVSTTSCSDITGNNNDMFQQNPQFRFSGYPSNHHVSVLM

Tests used:
[1] = molecular target: T1, AtNF-YB6/AtNF-YC3 dimer (recombinant, renatured together) (Arabidopsis thaliana) (UniProt Q84W66+Q9ZVL3); assay: native gel or EMSA; Figure 5A: recombinant AtNF-YB/AtNF-YC dimers with recombinant AtNF-YA6 or recombinant mouse NF-YA; 32P-labelled CCAAT oligonucleotide; NF-Y buffer, 15 min 20°C; 4.5% polyacrylamide; the read-out is the trimer bound to DNA; both purified
T1 sequence 1: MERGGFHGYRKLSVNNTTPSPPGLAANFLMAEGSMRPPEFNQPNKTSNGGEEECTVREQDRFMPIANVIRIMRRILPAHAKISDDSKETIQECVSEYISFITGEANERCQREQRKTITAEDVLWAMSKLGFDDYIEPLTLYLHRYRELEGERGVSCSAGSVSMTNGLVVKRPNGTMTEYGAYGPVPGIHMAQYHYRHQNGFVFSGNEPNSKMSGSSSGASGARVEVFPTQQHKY
T1 sequence 2: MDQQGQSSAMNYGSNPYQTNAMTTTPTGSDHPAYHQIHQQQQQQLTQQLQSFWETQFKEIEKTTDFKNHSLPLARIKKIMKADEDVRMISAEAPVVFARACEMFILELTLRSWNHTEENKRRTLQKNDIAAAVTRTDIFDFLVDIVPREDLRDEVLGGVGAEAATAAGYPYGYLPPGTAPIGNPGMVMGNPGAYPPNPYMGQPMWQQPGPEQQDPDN

[2] = molecular target: T2, mouse NF-YB/NF-YC (recombinant HFD dimer of Figure 4C) (mouse) (UniProt P63139+P70353); assay: native gel or EMSA; Figure 4: TnT produced Arabidopsis subunit added to two recombinant mouse subunits; 32P-labelled CCAAT oligonucleotide; NF-Y buffer (20 mM Hepes pH 7.9, 50 mM NaCl, 5% glycerol, 5 mM MgCl2), 15 min 20°C; 4.5% polyacrylamide, 0.5x TBE; the read-out is the trimer bound to DNA; only the target …
T2 sequence 1: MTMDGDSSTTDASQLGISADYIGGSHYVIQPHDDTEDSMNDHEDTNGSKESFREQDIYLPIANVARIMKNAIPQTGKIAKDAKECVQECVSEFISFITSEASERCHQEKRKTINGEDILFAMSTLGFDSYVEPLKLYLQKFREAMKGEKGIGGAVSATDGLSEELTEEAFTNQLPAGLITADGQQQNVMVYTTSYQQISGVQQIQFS
T2 sequence 2: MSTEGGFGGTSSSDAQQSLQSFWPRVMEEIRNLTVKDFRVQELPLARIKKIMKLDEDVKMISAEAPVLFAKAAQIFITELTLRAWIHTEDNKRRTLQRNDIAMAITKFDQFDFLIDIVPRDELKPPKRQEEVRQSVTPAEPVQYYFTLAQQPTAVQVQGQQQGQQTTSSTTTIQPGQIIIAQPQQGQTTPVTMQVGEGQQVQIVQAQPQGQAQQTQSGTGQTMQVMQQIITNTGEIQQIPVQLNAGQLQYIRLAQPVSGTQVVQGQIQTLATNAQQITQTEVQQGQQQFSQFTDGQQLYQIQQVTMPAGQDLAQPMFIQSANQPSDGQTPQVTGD

[3] = molecular target: T3, His-tagged recombinant AtNF-YB2 (Arabidopsis thaliana) (UniProt Q9FGJ3); assay: pull-down; as a4, with labelled TnT produced AtNF-YA6 added to the load together with an AtNF-YC (Figure 3B); His-tagged AtNF-YB2 held on Nickel-agarose; only the target purified
T3 sequence: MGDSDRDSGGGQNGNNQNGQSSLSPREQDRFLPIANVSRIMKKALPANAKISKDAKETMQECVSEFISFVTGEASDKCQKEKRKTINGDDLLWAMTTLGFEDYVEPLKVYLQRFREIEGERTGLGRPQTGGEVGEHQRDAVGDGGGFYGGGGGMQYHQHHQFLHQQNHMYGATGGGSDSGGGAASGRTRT

[4] = molecular target: T1, AtNF-YB6/AtNF-YC3 dimer (recombinant, renatured together) (Arabidopsis thaliana); assay: native gel or EMSA; Figure 5B: recombinant AtNF-YB6/AtNF-YC3 dimer with other AtNF-YA family members (made in this paper only by TnT, AtNF-YA6 aside); labelled CCAAT oligonucleotide; the read-out is the trimer bound to DNA; only the target purified

Row | Substance | binding [1] | binding [2] | binding [3] | binding [4]
1 | recombinant AtNF-YA6 (His-tagged) (from UniProt Q9LVJ7 1-308) | binds |  |  | 
2 | AtNF-YA6 (TnT produced) (from UniProt Q9LVJ7 1-308) |  | binds | binds | binds
